From article doi:10.1101/2024.01.16.575949 come the findings set out here.

By UniProt entry, the sequences of proteins in these tests, tags left out.
UniProt P61244: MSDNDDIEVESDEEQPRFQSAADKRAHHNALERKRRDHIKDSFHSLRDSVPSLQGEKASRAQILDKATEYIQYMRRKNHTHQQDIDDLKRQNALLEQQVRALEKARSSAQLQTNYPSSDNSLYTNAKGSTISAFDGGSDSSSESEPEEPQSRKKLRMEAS

The target of the experiment is T1, Halo-SIN3A (UniProt Q96ST3).
T1 sequence: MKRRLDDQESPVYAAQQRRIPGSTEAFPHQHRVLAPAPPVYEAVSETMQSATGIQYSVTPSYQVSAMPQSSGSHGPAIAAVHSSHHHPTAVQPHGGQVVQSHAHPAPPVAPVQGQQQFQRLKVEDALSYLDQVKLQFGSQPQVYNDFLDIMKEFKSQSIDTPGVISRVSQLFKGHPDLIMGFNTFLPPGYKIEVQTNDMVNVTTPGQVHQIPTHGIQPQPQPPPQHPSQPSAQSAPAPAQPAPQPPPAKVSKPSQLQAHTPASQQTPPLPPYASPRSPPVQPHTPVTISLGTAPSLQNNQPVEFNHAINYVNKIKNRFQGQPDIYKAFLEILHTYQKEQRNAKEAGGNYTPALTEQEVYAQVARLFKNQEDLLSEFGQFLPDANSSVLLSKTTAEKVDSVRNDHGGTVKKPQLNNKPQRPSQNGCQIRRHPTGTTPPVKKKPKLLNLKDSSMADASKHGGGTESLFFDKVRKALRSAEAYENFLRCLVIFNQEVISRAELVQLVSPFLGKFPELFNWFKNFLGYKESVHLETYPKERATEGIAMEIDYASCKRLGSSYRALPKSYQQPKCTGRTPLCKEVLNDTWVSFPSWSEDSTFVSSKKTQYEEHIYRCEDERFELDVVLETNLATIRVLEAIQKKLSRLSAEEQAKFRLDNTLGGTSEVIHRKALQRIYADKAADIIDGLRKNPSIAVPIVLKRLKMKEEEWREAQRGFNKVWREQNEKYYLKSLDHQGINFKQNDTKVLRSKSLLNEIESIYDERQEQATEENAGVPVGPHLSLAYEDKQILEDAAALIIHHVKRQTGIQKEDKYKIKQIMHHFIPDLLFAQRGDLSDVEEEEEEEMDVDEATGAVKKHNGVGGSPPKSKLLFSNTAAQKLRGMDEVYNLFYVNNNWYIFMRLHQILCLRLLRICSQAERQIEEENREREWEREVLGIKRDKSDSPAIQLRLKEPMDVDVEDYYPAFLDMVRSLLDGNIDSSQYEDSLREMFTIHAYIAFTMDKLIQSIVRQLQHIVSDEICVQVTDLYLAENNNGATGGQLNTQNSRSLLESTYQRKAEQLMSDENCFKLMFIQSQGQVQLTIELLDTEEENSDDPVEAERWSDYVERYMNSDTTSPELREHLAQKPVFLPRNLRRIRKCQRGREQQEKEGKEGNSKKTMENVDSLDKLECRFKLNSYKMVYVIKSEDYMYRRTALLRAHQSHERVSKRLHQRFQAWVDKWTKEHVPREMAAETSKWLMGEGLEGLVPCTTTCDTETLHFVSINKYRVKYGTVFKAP
In words: affinity purification with mass spectrometry.

These are yes or no findings as the source states them, for the method shown. Binding seen in cells or lysates may run through a third protein. Here binding means that the protein was enriched with, or labelled near, the bait; the list need not be complete.

Turning to “MAX (endogenous) (from UniProt P61244 1-160)”, the binding result was “binds”.

B1: ARID4A (endogenous) (protein, UniProt P29374 1-1257)
chain: MKAADEPAYLTVGTDVSAKYRGAFCEAKIKTVKRLVKVKVLLKQDNTTQLVQDDQVKGPLRVGAIVETRTSDGSFQEAIISKLTDASWYTVVFDDGDERTLRRTSLCLKGERHFAESETLDQLPLTNPEHFGTPVIAKKTNRGRRSSLPVTEDEKEEESSEEEDEDKRRLNDELLGKVVSVVSATERTEWYPALVISPSCNDDITVKKDQCLVRSFIDSKFYSIARKDIKEVDILNLPESELSTKPGLQKASIFLKTRVVPDNWKMDISEILESSSSDDEDGPAEENDEEKEKEAKKTEEEVPEEELDPEERDNFLQQLYKFMEDRGTPINKPPVLGYKDLNLFKLFRLVYHQGGCDNIDSGAVWKQIYMDLGIPILNSAASYNVKTAYRKYLYGFEEYCRSANIQFRTVHHHEPKVKEEKKDLEESMEEALKLDQEMPLTEVKSEPEENIDSNSESEREEIELKSPRGRRRIARDVNSIKKEIEEEKTEDKLKDNDTENKDVDDDYETAEKKENELLLGRKNTPKQKEKKIKKQEDSDKDSDEEEEKSQEREETESKCDSEGEEDEEDMEPCLTGTKVKVKYGRGKTQKIYEASIKSTEIDDGEVLYLVHYYGWNVRYDEWVKADRIIWPLDKGGPKKKQKKKAKNKEDSEKDEKRDEERQKSKRGRPPLKSTLSSNMPYGLSKTANSEGKSDSCSSDSETEDALEKNLINEELSLKDELEKNENLNDDKLDEENPKISAHILKENDRTQMQPLETLKLEVGENEQIVQIFGNKMEKTEEVKKEAEKSPKGKGRRSKTKDLSLEIIKISSFGQNEAGSEPHIEAHSLELSSLDNKNFSSATEDEIDQCVKEKKLKRKILGQSSPEKKIRIENGMEMTNTVSQERTSDCIGSEGMKNLNFEQHFERENEGMPSLIAESNQCIQQLTSERFDSPAEETVNIPLKEDEDAMPLIGPETLVCHEVDLDDLDEKDKTSIEDVAVESSESNSLVSIPPALPPVVQHNFSVASPLTLSQDESRSVKSESDITIEVDSIAEESQEGLCERESANGFETNVASGTCSIIVQERESREKGQKRPSDGNSGLMAKKQKRTPKRTSAAAKNEKNGTGQSSDSEDLPVLDNSSKCTPVKHLNVSKPQKLARSPARISPHIKDGEKDKHREKHPNSSPRTYKWSFQLNELDNMNSTERISFLQEKLQEIRKYYMSLKSEVATIDRRRKRLKKKDREVSHAGASMSSASSDTGMSPSSSSPPQNVLAVECR
Consider B1, for which the binding entry is reported as “binds”.
